Our source for the binding values is article PMC10657439 (Cell Death and Differentiation, 2023).

Sequences of proteins named here, by UniProt entry; tags and fusion partners are left off. A change or cut given only in a name is not applied to a line headed by its entry. A line that says so, or that is headed by a name, gives the form on record, which may keep a tag or linker. Residues count along the entry.
UniProt P25445: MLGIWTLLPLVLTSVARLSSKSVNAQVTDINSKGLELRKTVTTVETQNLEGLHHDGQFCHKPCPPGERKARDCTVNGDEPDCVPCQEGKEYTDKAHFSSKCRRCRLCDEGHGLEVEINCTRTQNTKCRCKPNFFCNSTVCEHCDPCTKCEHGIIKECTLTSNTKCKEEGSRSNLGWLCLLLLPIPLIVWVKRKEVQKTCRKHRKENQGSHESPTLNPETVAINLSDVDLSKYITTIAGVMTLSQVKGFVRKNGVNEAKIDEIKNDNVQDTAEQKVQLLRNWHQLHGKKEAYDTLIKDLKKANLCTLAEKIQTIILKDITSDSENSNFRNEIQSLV
Fc-tagged Fas (recombinant extracellular domain of Fas with a C-terminal Fc): residues 26-173 of P25445

Experiment [1] concerns the target His_FasL^D164A (printed as His_FasL^D163A in Table 1) (human). Kind of experiment: co-IP; OVCAR3 cells treated with His-tagged FasL; immunoprecipitation with anti-His antibody, immunoblot with anti-Fas antibody; only the target purified. A general note: Immunoblotting shows a protein as a band on a membrane.
In a further experiment the target is His_FasL^E270A (human). Described as above.
Experiment [2] has as its target His_FasL^WT (N-terminal His-tagged human FasL, wild type) (human). The description is as above.
Experiment [3] addresses Fc-tagged Fas (recombinant extracellular domain of Fas with a C-terminal Fc) (human) (UniProt P25445). Kind of experiment: ELISA; Fc-tagged Fas (2 μg/ml) coated on 96-well plates; His-tagged FasL (single or tandem) in 2-fold dilutions from 50 to 0.048 nM, 1 h at 37 °C; both purified. A general note: ELISA stands for enzyme-linked immunosorbent assay.
Experiment [4] shares this target. The experiment can be described thus: condition: 50 nM (highest of the dilution series, methods); ELISA; Fc-tagged Fas (2 μg/ml) coated on 96-well plates; His-tagged FasL (single or tandem) in 2-fold dilutions from 50 to 0.048 nM, 1 h at 37 °C; both purified.

Numbering of substitutions follows the chain as printed. Numbers in names are those of the source. Results are given in words; binding and its absence hold for the method and conditions named. For some of these results: In cells and extracts the contact can be indirect. Some binding calls cover weakened binding; strength is not graded here. For some of these results: Sequences can lack the tags named with a protein.

“Fas (CD95), endogenous on human cells (from UniProt P25445 26-335) (receptor)”: the binding entry (in experiment [1]; with His_FasL^E270A (human); in experiment [2]) was “binds” throughout.

B1: His_FasL^WT-E163A (tandem: wild-type FasL unit and E163A unit) (ligand)
chain: GGSPSPPPEKKELRKVAHLTGKSNSRSMPLEWEDTYGIVLLSGVKYKKGGLVINETGLYFVYSKVYFRGQSCNNLPLSHKVYMRNSKYPQDLVMMEGKMMSYCTTGQMWARSSYLGAVFNLTSADHLYVNVSELSLVNFEESQTFFGLYKLGGGSGGGSGGGSPSPPPEKKELRKVAHLTGKSNSRSMPLEWADTYGIVLLSGVKYKKGGLVINETGLYFVYSKVYFRGQSCNNLPLSHKVYMRNSKYPQDLVMMEGKMMSYCTTGQMWARSSYLGAVFNLTSADHLYVNVSELSLVNFEESQTFFGLYKL
Take B1: the binding entry in experiment [3] is listed as “no binding”.

B2: His_FasL^WT-E271A (tandem: wild-type FasL unit and E271A unit) (ligand)
chain: B1 chain with A193E, E301A
For the molecule B2, in experiment [3], the binding result is “no binding”.

B3: His_FasL^E163A (ligand, human)
chain: GGSPSPPPEKKELRKVAHLTGKSNSRSMPLEWADTYGIVLLSGVKYKKGGLVINETGLYFVYSKVYFRGQSCNNLPLSHKVYMRNSKYPQDLVMMEGKMMSYCTTGQMWARSSYLGAVFNLTSADHLYVNVSELSLVNFEESQTFFGLYKL
notes: linker between the His tag and FasL; also called A163; source: FreeStyle CHO-S cells, transfected, purified (Ni-Sepharose HisTrap); not shown: His7, N-terminal, kept
B3: the binding result in experiment [4] was “no binding”.

B4: His_FasL^E271A (ligand, human)
chain: B3 chain with A33E, E141A
notes: linker between the His tag and FasL; also called A271; source: FreeStyle CHO-S cells, transfected, purified (Ni-Sepharose HisTrap); not shown: His7, N-terminal, kept
For the molecule B4, the binding result in experiment [4] was “no binding”.
